The record followed here is PMC7819943, “Rice protein-binding microarrays: a tool to detect cis-acting elements near promoter regions in rice”.

The list shows a part of the results.

This experiment deals with T1, OsSMF1 (Oryza sativa, UniProt Q6ZLB0 1-436).
T1 sequence: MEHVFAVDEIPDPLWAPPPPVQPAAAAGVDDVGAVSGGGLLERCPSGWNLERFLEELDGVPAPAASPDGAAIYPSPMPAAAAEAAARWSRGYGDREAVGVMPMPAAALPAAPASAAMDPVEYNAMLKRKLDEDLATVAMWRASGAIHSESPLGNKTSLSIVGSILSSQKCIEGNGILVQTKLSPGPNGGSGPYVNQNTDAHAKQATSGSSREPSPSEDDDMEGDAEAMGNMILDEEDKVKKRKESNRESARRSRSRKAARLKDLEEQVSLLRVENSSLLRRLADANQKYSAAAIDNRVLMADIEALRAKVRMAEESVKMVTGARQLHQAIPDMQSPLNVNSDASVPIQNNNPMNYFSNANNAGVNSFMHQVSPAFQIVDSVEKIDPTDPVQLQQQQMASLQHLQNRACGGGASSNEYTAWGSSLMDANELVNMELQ
Nature of the experiment: protein-binding microarray (RPBM); PBS, 2% BSA, 51.3 ng/ul salmon testes DNA, 50 uM zinc acetate, 200 nM TF, 25 C, 1 h; high values mean tight binding. The following applies: protein: recombinant; tags: N-terminal polyhistidine and DsRed monomer fusion (pET32a); chain copies: 2; label: CyDye5-dUTP incorporated in the synthesized complementary strand; 3' TTTTT single-stranded linker to array surface; dsDNA, one strand shown. Summed up: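 A custom Agilent array was converted to double-stranded form by primer extension with Cy5-dUTP and blocked with 2% BSA. Protein at 200 nM in PBS with 2% BSA, salmon testes DNA and 50 µM zinc acetate was applied for 1 h at 25 °C, followed by washing. The proteins were polyhistidine–DsRed N-terminal fusions of transcription factors, expressed in E. coli BL21-CodonPlus and Ni–NTA-purified. The binding signal is per-feature fluorescence intensity (arbitrary units) from an Axon 4000B scanner.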
As to “AGCTTCGTCGGCGGCGATGGCGGCGGCGGCGGCGCTGTGGCGGAGTCACCTAGTGCAG”, the binding signal was 28000 fluorescence intensity (a.u.).

For “GGGCTCCCTCCACCGCCGCCTCCGCCACCGCCTCGCCGCCCGGAGTCACCTAGTGCAG”, the binding signal is 3150 fluorescence intensity (a.u.).

Turning to “ACTGAACTGGTCACTGTCATTCATTTTCTTAAGCTGCAATCGGAGTCACCTAGTGCAG”, the binding signal is 3750 fluorescence intensity (a.u.).

As for “TGGCCCCTTGACACGTGGATCCACACCCCATGGTTCAGGCCGGAGTCACCTAGTGCAG”, the binding signal is 18000 fluorescence intensity (a.u.).

In the case of “GGGAGATTTGTAGTGCCGTGATAATTATGATGCCGCCAAACGGAGTCACCTAGTGCAG”, the binding signal is 3820 fluorescence intensity (a.u.).

As for “TAGCAATAGTTACATATTTAATCTCATGCAAGTATACAACCGGAGTCACCTAGTGCAG”, the binding signal was 23600 fluorescence intensity (a.u.).

For “GACGCAATGTGTGTATGACAGGTGAGACCATATGTTAATACGGAGTCACCTAGTGCAG”, the binding signal is 3180 fluorescence intensity (a.u.).

In the case of “CGGATTGGGGTAGTGGAGCATCTAGTGGCATCATCCGTAGCGGAGTCACCTAGTGCAG”, the binding signal is 3600 fluorescence intensity (a.u.).

For “CTAAGCAAGCTATATGCTTATATGGAAGAGAGAGATAGGACGGAGTCACCTAGTGCAG”, the binding signal was 3220 fluorescence intensity (a.u.).

For the sequence “GAAGTGTCCATATTGAGTCATTTGTCCATTTGCCCAGGCACGGAGTCACCTAGTGCAG”, the binding signal was 4960 fluorescence intensity (a.u.).

In the case of “TTATGTGGTTGTTTAAATCCACGTAGCCATCACGCATGAACGGAGTCACCTAGTGCAG”, the binding signal was 6010 fluorescence intensity (a.u.).

For the sequence “TTTGCCATGTAGACGTCACGTCAGCTTAAATCGTTGTTCACGGAGTCACCTAGTGCAG”, the binding signal was 16600 fluorescence intensity (a.u.).

With “ATCCTTCATTATGTTAGAGTACCACATGGGAAGTCGAGACCGGAGTCACCTAGTGCAG”, the binding signal is 3750 fluorescence intensity (a.u.).

Turning to “CACAACTACGTAGACGGGCGTTTGCGGCCGAAAATTTGACCGGAGTCACCTAGTGCAG”, the binding signal is 3730 fluorescence intensity (a.u.).

Take “ACCCGTGGGTATAAAAGCCTAGCGGTAAGTTGCTATAGAGCGGAGTCACCTAGTGCAG”: the binding signal is 37600 fluorescence intensity (a.u.).

“TTAGCCAAGTTGTTATGGAAGTCATGAGGCAGCTTGAAGGCGGAGTCACCTAGTGCAG”: the binding signal is 3700 fluorescence intensity (a.u.).

Turning to “CGATTCGACGCCCTCCTCGTCTGCTGAATTCCTTCGATTCCGGAGTCACCTAGTGCAG”, the binding signal was 3310 fluorescence intensity (a.u.).

With “CGACCGTACGTACGTGGATAATATGCAATGCATATGCATTCGGAGTCACCTAGTGCAG”, the binding signal is 4580 fluorescence intensity (a.u.).

Take “CGAGTGGCCGCGGGCGGGCTCCGACGACGTGGGCGAGTGGCGGAGTCACCTAGTGCAG”: the binding signal was 4120 fluorescence intensity (a.u.).

On to “GTGTATGCCACGTAGGACTAAAACTGCTCCGGATTGAGGGCGGAGTCACCTAGTGCAG”, for which the binding signal is 17800 fluorescence intensity (a.u.).

As to “ACCACTAAATATTCTTAAATGATTATATTAAAATGAGCATCGGAGTCACCTAGTGCAG”, the binding signal is 21100 fluorescence intensity (a.u.).

Regarding “CTGCTCCCGTATAATTTATTTCGTGCGTGCGTGTTTAATTCGGAGTCACCTAGTGCAG”, the binding signal is 4540 fluorescence intensity (a.u.).

With “GTTTTAGGATATATCAAATCCGATTCTAAATTGCTACTCCCGGAGTCACCTAGTGCAG”, the binding signal was 3420 fluorescence intensity (a.u.).

On to “GGCTATATGAGGAGACGCTCGCGATAAACCCTAGCTCCACCGGAGTCACCTAGTGCAG”, for which the binding signal was 26000 fluorescence intensity (a.u.).

For the sequence “ATTGGCTAGCTTGTACTCCAGCATGGATTATGCATGTGTTCGGAGTCACCTAGTGCAG”, the binding signal is 3250 fluorescence intensity (a.u.).

Regarding “CAGCAACCGAGGTGCCTTCGTCAGCTTCCAAAGAAGCTACCGGAGTCACCTAGTGCAG”, the binding signal is 5030 fluorescence intensity (a.u.).

Take “TTGGTTCTCTGTCACGTCAAGTGCAACGAACGGCACGTCTCGGAGTCACCTAGTGCAG”: the binding signal was 4330 fluorescence intensity (a.u.).

Consider “CTATTTTCTCTTGTCCACGTCAGCAAAATAAGTGTTATATCGGAGTCACCTAGTGCAG”, for which the binding signal was 16600 fluorescence intensity (a.u.).

For “CATACTCCTAGAAAATGACAAGTCAGCCTCTTGCAATCACCGGAGTCACCTAGTGCAG”, the binding signal is 5230 fluorescence intensity (a.u.).

With “GTCCACATTAGTAATACGCGTCACACACACGAGGAAATTACGGAGTCACCTAGTGCAG”, the binding signal was 4120 fluorescence intensity (a.u.).

In the case of “CCTACACACTCGACAATTGCCAAGTCAGAAAGCAATATACCGGAGTCACCTAGTGCAG”, the binding signal was 4200 fluorescence intensity (a.u.).

Turning to “GTGAGCCCACATGTCATCCTTTATTCCTCCTCCCTCTCTCCGGAGTCACCTAGTGCAG”, the binding signal is 3210 fluorescence intensity (a.u.).

“AAGAATGCCATGTACACTACTCTTTCTGAGCTTGTGCAAGCGGAGTCACCTAGTGCAG”: the binding signal was 4760 fluorescence intensity (a.u.).

In the case of “TATTATCTGCTGGGTACTCTCTGGTCGCACCTGCGTGGCTCGGAGTCACCTAGTGCAG”, the binding signal was 3540 fluorescence intensity (a.u.).

Regarding “AAATCTGACCGACTGCCACCGTGCCGCCCGTGATGAACACCGGAGTCACCTAGTGCAG”, the binding signal is 3720 fluorescence intensity (a.u.).

Regarding “CCCTCCGTGGTATATATCCACGTCTCCCTTAAACGCAACCCGGAGTCACCTAGTGCAG”, the binding signal is 4060 fluorescence intensity (a.u.).

In the case of “CTACAATGAATTAAGGTGCAAACGTGGAGGATGAAACTAACGGAGTCACCTAGTGCAG”, the binding signal is 4130 fluorescence intensity (a.u.).

Turning to “AGACATTATTTATAACTACGCACGTGGGCAAGTACTTATCCGGAGTCACCTAGTGCAG”, the binding signal is 4690 fluorescence intensity (a.u.).

For “ATTTATCCACGTCATCACGATTTACTCATGAGTACTTATGCGGAGTCACCTAGTGCAG”, the binding signal was 17700 fluorescence intensity (a.u.).

“AATCGGACCCATTTATTCGGCCCAATCTGGCCCATGCTCGCGGAGTCACCTAGTGCAG”: the binding signal was 3470 fluorescence intensity (a.u.).

In the case of “GTCAAGTCAACATGCAAGTGGTACATCGTGTATTCACATTCGGAGTCACCTAGTGCAG”, the binding signal is 4900 fluorescence intensity (a.u.).

For “CTACAGCACCATGATTTATTATTTATTATATTGGTGCAATCGGAGTCACCTAGTGCAG”, the binding signal was 13600 fluorescence intensity (a.u.).
